PubChem BioAssay AID1224827, NIAID, 2016
This is a random part of about 3,800 reagents tested. About 2,200 of all reagents (57%) count as active. 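Active means a strong reporter change in either direction; calls are per siRNA, not per gene; qiagen siRNAs gave weaker effects.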 Reagents against one gene are numbered here. Not all columns of the deposit are shown. No sequences are given here.

Aim: 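Confirm genes whose knock-down changes LPS-driven TNF promoter activity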 (follow-up of hits)
Cells: RAW264.7 G9 mouse macrophage reporter clone
Knock-down reagent: single siRNA against mouse genes, 100 nM siRNA
Timing: siRNA for 2 days, then LPS about 16 h
Conditions: bacterial lipopolysaccharide (LPS), 10 ng/ml, cells fixed after overnight (about 16 h) stimulation
Measured: 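TNF promoter reporter red fluorescence in nuclei, background subtracted, normalised per plate and to non-targeting control siRNA, as z-scores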
Direction: TNF reporter z-score, mean: higher = stronger Tnf promoter reporter signal; gene median z, three same-vendor siRNAs: higher = stronger Tnf reporter signal for the gene
Active means: 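An siRNA is called active when its mean z-score over replicates is at least +2 or at most -2; control wells get no call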

Or1j4 #1
- TNF reporter z-score, mean: 7.86
- gene median z, three same-vendor siRNAs: -3.23
- Outcome: active

Or1j4 #2
- TNF reporter z-score, mean: -3.23
- gene median z, three same-vendor siRNAs: -3.23
- Outcome: active

Or1j4 #3
- TNF reporter z-score, mean: -4.6
- gene median z, three same-vendor siRNAs: -3.23
- Outcome: active

Or1j4 #4
- TNF reporter z-score, mean: -0.37
- gene median z, three same-vendor siRNAs: -1.34
- Outcome: inactive

Or1j4 #5
- TNF reporter z-score, mean: -1.22
- gene median z, three same-vendor siRNAs: -1.34
- Outcome: inactive

Or1j4 #6
- TNF reporter z-score, mean: -2.52
- gene median z, three same-vendor siRNAs: -1.34
- Outcome: active

Cdkn1a #1
- TNF reporter z-score, mean: 4.27
- gene median z, three same-vendor siRNAs: -3.2
- Outcome: active

Cdkn1a #2
- TNF reporter z-score, mean: -3.2
- gene median z, three same-vendor siRNAs: -3.2
- Outcome: active

Cdkn1a #3
- TNF reporter z-score, mean: -3.69
- gene median z, three same-vendor siRNAs: -3.2
- Outcome: active

Cdkn1a #4
- TNF reporter z-score, mean: -1.15
- gene median z, three same-vendor siRNAs: -1.73
- Outcome: inactive

Cdkn1a #5
- TNF reporter z-score, mean: -1.53
- gene median z, three same-vendor siRNAs: -1.73
- Outcome: inactive

Cdkn1a #6
- TNF reporter z-score, mean: -2.54
- gene median z, three same-vendor siRNAs: -1.73
- Outcome: active

9230109A22Rik #1
- TNF reporter z-score, mean: 3.2
- gene median z, three same-vendor siRNAs: 1.29
- Outcome: active

9230109A22Rik #2
- TNF reporter z-score, mean: 1.29
- gene median z, three same-vendor siRNAs: 1.29
- Outcome: inactive

9230109A22Rik #3
- TNF reporter z-score, mean: -3.86
- gene median z, three same-vendor siRNAs: 1.29
- Outcome: active

9230109A22Rik #4
- TNF reporter z-score, mean: 1.87
- gene median z, three same-vendor siRNAs: 0.814
- Outcome: inactive

9230109A22Rik #5
- TNF reporter z-score, mean: 0.459
- gene median z, three same-vendor siRNAs: 0.814
- Outcome: inactive

9230109A22Rik #6
- TNF reporter z-score, mean: 0.774
- gene median z, three same-vendor siRNAs: 0.814
- Outcome: inactive

Ssh3 #1
- TNF reporter z-score, mean: 1.14
- gene median z, three same-vendor siRNAs: -2.86
- Outcome: inactive

Ssh3 #2
- TNF reporter z-score, mean: -2.86
- gene median z, three same-vendor siRNAs: -2.86
- Outcome: active

Ssh3 #3
- TNF reporter z-score, mean: -5.05
- gene median z, three same-vendor siRNAs: -2.86
- Outcome: active

Ssh3 #4
- TNF reporter z-score, mean: -0.127
- gene median z, three same-vendor siRNAs: -1.78
- Outcome: inactive

Ssh3 #5
- TNF reporter z-score, mean: -1.79
- gene median z, three same-vendor siRNAs: -1.78
- Outcome: inactive

Ssh3 #6
- TNF reporter z-score, mean: -2.29
- gene median z, three same-vendor siRNAs: -1.78
- Outcome: active

Ldhd #1
- TNF reporter z-score, mean: 0.988
- gene median z, three same-vendor siRNAs: -4.65
- Outcome: inactive

Ldhd #2
- TNF reporter z-score, mean: -4.65
- gene median z, three same-vendor siRNAs: -4.65
- Outcome: active

Ldhd #3
- TNF reporter z-score, mean: -5.78
- gene median z, three same-vendor siRNAs: -4.65
- Outcome: active

Ldhd #4
- TNF reporter z-score, mean: 1.82
- gene median z, three same-vendor siRNAs: -1.13
- Outcome: inactive

Ldhd #5
- TNF reporter z-score, mean: -1.13
- gene median z, three same-vendor siRNAs: -1.13
- Outcome: inactive

Ldhd #6
- TNF reporter z-score, mean: -2.45
- gene median z, three same-vendor siRNAs: -1.13
- Outcome: active

Hdac4 #1
- TNF reporter z-score, mean: -0.734
- gene median z, three same-vendor siRNAs: -2.49
- Outcome: inactive

Hdac4 #2
- TNF reporter z-score, mean: -2.5
- gene median z, three same-vendor siRNAs: -2.49
- Outcome: active

Hdac4 #3
- TNF reporter z-score, mean: -3.28
- gene median z, three same-vendor siRNAs: -2.49
- Outcome: active

Hdac4 #4
- TNF reporter z-score, mean: 0.577
- gene median z, three same-vendor siRNAs: -1.82
- Outcome: inactive

Hdac4 #5
- TNF reporter z-score, mean: -1.9
- gene median z, three same-vendor siRNAs: -1.82
- Outcome: inactive

Hdac4 #6
- TNF reporter z-score, mean: -2.56
- gene median z, three same-vendor siRNAs: -1.82
- Outcome: active
